Experimental data as given in publication doi:10.1101/2025.11.21.689678 (bioRxiv, 2025).
Like-named read-outs stand apart in the source and are kept apart here. No constants are given. Whether binding was seen depends on the method and setting. For part of these data: In cells and extracts the contact can be indirect. Some results given as binding are weak or reduced against the parent protein; the word gives no strength. For part of these data: Sequences can lack the tags named with a protein.

Amino acid sequences for entries named in this document (tags omitted).
UniProt P55036: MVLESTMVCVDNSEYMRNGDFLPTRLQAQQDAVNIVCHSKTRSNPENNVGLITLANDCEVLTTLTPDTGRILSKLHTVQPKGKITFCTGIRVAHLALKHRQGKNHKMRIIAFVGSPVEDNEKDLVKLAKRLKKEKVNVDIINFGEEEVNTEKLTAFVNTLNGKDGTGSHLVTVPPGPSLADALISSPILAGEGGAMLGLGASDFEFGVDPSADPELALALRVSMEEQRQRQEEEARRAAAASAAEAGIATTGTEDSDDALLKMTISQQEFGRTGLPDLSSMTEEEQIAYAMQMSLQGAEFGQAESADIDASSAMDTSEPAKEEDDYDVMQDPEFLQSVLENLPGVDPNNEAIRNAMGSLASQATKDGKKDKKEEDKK

Legend:
[1] = biological target: T1, HA-ALKBH2 (HEK293T) (human) (UniProt Q6NS38); experiment: co-IP
T1 sequence: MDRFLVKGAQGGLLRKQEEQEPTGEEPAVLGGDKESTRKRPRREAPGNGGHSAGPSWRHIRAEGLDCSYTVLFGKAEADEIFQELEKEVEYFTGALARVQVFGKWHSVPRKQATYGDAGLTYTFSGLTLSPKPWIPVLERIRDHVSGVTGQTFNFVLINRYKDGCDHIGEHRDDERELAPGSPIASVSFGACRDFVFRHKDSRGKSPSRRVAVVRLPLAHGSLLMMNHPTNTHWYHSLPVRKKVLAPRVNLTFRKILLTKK

[2] = biological target: Flag-TRIM28 (HEK293T) (human) (UniProt Q13263); experiment: co-IP
[3] = biological target: Flag-TRIM28 (H1299) (human) (UniProt Q13263); experiment: co-IP
[4] = biological target: T2, TRIM28 SUMO-acceptor-site mutant (K554/779/804R) (human) (UniProt Q13263); experiment: co-IP
T2 sequence: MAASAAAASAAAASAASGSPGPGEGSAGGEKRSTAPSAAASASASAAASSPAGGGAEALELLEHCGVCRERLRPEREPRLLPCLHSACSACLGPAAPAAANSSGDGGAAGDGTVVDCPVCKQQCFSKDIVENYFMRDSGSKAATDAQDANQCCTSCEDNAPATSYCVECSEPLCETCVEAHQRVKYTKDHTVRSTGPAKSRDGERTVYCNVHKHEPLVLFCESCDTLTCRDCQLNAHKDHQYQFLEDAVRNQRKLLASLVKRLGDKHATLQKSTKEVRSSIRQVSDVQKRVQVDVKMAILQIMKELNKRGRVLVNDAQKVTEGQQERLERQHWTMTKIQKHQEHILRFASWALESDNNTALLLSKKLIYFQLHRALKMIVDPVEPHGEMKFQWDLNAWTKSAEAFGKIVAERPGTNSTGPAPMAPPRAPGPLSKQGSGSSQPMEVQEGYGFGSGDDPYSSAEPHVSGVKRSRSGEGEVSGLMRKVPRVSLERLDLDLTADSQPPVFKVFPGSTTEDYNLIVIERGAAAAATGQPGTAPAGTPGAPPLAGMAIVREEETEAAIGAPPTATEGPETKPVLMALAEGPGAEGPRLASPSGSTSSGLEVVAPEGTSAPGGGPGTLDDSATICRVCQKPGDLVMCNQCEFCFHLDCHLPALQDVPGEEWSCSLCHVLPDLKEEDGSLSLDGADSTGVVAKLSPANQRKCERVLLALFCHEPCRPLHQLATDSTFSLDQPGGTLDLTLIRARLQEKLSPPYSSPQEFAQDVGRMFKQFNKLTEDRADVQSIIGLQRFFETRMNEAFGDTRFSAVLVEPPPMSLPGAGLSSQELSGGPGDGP

[5] = biological target: Flag-TRIM28 (H1299) (human) (UniProt Q13263); experiment: co-IP; remark: listed apart in the source
[6] = biological target: endogenous TRIM28 (H1299) (human (endogenous in H1299)) (UniProt Q13263); experiment: co-IP
[7] = biological target: T2, TRIM28 SUMO-acceptor-site mutant (K554/779/804R) (human); experiment: co-IP; remark: listed apart in the source
[8] = biological target: MBP-TRIM28 (human) (UniProt Q13263); experiment: pull-down

In the case of “Flag-TRIM28 (HEK293T) (from UniProt Q13263 1-835)”, the binding [1] is reported as “binds”.

In the case of “endogenous PSMD4 (HEK293T) (from UniProt P55036 1-377)”, the binding [2] is reported as “binds”.

With “endogenous PSMD4 (H1299) (from UniProt P55036 1-377)” the binding [3] was “binds” and the binding [4] was “binds”.

B1: endogenous ALKBH2 (H1299) (protein, UniProt Q6NS38 1-261)
chain: T1 sequence
With B1 the binding [5] was “binds” and the binding [6] was “binds”.

B2: endogenous TRIM24 (H1299) (protein, UniProt O15164 1-1050)
chain: MEVAVEKAVAAAAAASAAASGGPSAAPSGENEAESRQGPDSERGGEAARLNLLDTCAVCHQNIQSRAPKLLPCLHSFCQRCLPAPQRYLMLPAPMLGSAETPPPVPAPGSPVSGSSPFATQVGVIRCPVCSQECAERHIIDNFFVKDTTEVPSSTVEKSNQVCTSCEDNAEANGFCVECVEWLCKTCIRAHQRVKFTKDHTVRQKEEVSPEAVGVTSQRPVFCPFHKKEQLKLYCETCDKLTCRDCQLLEHKEHRYQFIEEAFQNQKVIIDTLITKLMEKTKYIKFTGNQIQNRIIEVNQNQKQVEQDIKVAIFTLMVEINKKGKALLHQLESLAKDHRMKLMQQQQEVAGLSKQLEHVMHFSKWAVSSGSSTALLYSKRLITYRLRHLLRARCDASPVTNNTIQFHCDPSFWAQNIINLGSLVIEDKESQPQMPKQNPVVEQNSQPPSGLSSNQLSKFPTQISLAQLRLQHMQQQVMAQRQQVQRRPAPVGLPNPRMQGPIQQPSISHQQPPPRLINFQNHSPKPNGPVLPPHPQQLRYPPNQNIPRQAIKPNPLQMAFLAQQAIKQWQISSGQGTPSTTNSTSSTPSSPTITSAAGYDGKAFGSPMIDLSSPVGGSYNLPSLPDIDCSSTIMLDNIVRKDTNIDHGQPRPPSNRTVQSPNSSVPSPGLAGPVTMTSVHPPIRSPSASSVGSRGSSGSSSKPAGADSTHKVPVVMLEPIRIKQENSGPPENYDFPVVIVKQESDEESRPQNANYPRSILTSLLLNSSQSSTSEETVLRSDAPDSTGDQPGLHQDNSSNGKSEWLDPSQKSPLHVGETRKEDDPNEDWCAVCQNGGELLCCEKCPKVFHLSCHVPTLTNFPSGEWICTFCRDLSKPEVEYDCDAPSHNSEKKKTEGLVKLTPIDKRKCERLLLFLYCHEMSLAFQDPVPLTVPDYYKIIKNPMDLSTIKKRLQEDYSMYSKPEDFVADFRLIFQNCAEFNEPDSEVANAGIKLENYFEELLKNLYPEKRFPKPEFRNESEDNKFSDDSDDDFVQPRKKRLKSIEERQLLK
In the case of B2, the binding [5] is reported as “binds” and the binding [7] is reported as “binds”.

B3: His-Flag-ALKBH2 (natural protein, human, UniProt Q6NS38 1-261, looked up)
chain: T1 sequence
In the case of B3, the binding [8] is reported as “binds”.
